The record followed here is doi:10.1101/2021.07.30.454360.

Chains of the proteins cited; added tags and fusions are not shown.
UniProt Q15022: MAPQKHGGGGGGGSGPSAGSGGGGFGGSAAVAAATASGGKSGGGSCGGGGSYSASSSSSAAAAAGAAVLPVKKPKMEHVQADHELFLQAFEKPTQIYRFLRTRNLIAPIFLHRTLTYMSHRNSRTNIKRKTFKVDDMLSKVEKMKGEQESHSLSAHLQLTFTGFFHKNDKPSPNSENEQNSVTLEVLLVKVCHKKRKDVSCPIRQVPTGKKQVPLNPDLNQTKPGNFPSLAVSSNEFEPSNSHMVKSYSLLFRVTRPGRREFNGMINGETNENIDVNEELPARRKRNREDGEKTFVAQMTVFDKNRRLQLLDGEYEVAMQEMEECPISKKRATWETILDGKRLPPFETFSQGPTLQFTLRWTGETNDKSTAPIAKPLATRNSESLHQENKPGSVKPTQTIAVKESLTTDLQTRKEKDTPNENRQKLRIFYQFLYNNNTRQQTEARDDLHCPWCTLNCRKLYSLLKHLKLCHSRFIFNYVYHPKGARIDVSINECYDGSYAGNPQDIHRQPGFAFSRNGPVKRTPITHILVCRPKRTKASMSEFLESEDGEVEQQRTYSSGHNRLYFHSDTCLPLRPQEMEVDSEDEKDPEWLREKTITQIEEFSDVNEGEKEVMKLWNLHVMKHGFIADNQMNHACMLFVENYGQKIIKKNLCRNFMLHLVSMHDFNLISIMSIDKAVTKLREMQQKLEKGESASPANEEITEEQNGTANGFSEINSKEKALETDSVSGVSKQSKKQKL
UniProt P14652: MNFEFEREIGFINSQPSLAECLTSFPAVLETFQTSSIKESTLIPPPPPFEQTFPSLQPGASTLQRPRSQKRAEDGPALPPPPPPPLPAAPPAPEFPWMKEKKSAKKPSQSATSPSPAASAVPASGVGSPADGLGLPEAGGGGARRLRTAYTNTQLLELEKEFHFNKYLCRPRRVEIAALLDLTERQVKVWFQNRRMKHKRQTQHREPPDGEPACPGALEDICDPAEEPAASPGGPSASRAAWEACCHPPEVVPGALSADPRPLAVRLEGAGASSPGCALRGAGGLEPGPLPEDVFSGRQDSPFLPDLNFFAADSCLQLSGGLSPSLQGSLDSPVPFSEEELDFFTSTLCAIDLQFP
UniProt Q9BT81: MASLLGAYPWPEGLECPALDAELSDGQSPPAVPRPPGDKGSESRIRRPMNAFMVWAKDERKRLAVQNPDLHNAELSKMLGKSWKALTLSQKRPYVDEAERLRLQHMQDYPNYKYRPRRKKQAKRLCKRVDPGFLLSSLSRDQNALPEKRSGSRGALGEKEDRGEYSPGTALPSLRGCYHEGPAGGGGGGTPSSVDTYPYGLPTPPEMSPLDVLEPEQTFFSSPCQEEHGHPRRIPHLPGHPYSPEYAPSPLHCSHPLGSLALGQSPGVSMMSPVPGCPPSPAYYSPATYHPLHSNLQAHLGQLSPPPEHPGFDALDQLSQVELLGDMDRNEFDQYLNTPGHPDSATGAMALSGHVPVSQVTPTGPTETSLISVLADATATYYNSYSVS
UniProt Q92793: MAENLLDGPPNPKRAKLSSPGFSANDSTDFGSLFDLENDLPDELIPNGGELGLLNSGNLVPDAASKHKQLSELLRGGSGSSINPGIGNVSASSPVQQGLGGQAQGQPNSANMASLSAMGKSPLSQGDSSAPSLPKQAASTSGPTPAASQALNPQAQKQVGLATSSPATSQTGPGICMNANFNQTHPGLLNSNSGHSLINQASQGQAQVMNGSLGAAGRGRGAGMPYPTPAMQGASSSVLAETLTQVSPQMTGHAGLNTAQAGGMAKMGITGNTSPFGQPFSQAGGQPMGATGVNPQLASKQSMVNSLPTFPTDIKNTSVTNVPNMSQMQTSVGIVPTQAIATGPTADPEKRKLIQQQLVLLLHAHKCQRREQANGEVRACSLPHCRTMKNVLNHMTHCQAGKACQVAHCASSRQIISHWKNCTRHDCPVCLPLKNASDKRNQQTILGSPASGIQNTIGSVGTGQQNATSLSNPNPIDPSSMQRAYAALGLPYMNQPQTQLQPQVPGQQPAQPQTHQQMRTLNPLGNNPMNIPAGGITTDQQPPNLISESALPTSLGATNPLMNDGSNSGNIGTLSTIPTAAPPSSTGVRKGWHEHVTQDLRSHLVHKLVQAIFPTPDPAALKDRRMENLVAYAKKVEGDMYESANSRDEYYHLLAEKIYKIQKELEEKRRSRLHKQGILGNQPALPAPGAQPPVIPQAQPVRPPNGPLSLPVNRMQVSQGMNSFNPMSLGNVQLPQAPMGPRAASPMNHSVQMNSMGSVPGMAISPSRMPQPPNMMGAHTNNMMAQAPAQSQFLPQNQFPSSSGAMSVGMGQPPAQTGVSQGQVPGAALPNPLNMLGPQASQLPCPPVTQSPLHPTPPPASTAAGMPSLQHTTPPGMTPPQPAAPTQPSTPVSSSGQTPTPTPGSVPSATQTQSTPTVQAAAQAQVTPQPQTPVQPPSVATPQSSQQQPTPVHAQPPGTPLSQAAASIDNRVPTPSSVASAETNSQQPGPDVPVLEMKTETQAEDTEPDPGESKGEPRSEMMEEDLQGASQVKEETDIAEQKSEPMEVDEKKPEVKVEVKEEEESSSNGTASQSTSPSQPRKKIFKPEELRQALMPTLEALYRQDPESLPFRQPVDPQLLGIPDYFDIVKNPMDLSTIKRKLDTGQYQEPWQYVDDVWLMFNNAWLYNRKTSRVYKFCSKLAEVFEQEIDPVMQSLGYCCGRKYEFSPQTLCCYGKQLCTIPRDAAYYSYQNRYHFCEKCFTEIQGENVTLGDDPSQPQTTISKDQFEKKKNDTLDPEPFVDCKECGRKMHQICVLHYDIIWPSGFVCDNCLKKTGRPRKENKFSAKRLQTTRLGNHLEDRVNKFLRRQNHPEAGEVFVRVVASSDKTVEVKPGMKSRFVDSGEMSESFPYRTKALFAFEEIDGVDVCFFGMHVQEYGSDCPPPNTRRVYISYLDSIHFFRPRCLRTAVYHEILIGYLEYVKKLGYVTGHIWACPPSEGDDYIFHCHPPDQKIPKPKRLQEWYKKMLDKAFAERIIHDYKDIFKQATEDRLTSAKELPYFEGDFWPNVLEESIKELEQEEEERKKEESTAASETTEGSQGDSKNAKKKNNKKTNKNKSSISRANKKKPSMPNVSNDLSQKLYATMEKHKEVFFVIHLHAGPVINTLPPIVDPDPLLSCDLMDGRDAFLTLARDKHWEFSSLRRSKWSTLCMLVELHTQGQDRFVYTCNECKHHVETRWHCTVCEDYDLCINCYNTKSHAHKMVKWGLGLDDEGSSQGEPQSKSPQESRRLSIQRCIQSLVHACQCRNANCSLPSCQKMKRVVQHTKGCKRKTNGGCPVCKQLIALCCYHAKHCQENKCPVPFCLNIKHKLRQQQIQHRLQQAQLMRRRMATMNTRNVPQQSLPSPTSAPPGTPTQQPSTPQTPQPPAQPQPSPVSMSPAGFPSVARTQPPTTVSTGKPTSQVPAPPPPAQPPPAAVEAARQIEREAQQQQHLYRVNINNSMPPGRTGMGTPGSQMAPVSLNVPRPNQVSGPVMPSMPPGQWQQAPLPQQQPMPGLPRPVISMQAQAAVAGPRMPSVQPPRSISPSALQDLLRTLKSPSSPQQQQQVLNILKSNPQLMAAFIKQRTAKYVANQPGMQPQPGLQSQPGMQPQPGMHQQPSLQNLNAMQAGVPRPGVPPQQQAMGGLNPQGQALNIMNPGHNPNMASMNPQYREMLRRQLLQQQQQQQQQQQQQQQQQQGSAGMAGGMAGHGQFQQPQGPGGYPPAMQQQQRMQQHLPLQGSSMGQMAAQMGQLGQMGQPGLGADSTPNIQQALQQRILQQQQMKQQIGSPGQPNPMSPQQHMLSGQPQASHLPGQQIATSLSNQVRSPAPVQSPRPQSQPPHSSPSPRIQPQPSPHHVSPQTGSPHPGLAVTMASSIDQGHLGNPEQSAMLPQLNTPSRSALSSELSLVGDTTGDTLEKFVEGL
UniProt Q09472: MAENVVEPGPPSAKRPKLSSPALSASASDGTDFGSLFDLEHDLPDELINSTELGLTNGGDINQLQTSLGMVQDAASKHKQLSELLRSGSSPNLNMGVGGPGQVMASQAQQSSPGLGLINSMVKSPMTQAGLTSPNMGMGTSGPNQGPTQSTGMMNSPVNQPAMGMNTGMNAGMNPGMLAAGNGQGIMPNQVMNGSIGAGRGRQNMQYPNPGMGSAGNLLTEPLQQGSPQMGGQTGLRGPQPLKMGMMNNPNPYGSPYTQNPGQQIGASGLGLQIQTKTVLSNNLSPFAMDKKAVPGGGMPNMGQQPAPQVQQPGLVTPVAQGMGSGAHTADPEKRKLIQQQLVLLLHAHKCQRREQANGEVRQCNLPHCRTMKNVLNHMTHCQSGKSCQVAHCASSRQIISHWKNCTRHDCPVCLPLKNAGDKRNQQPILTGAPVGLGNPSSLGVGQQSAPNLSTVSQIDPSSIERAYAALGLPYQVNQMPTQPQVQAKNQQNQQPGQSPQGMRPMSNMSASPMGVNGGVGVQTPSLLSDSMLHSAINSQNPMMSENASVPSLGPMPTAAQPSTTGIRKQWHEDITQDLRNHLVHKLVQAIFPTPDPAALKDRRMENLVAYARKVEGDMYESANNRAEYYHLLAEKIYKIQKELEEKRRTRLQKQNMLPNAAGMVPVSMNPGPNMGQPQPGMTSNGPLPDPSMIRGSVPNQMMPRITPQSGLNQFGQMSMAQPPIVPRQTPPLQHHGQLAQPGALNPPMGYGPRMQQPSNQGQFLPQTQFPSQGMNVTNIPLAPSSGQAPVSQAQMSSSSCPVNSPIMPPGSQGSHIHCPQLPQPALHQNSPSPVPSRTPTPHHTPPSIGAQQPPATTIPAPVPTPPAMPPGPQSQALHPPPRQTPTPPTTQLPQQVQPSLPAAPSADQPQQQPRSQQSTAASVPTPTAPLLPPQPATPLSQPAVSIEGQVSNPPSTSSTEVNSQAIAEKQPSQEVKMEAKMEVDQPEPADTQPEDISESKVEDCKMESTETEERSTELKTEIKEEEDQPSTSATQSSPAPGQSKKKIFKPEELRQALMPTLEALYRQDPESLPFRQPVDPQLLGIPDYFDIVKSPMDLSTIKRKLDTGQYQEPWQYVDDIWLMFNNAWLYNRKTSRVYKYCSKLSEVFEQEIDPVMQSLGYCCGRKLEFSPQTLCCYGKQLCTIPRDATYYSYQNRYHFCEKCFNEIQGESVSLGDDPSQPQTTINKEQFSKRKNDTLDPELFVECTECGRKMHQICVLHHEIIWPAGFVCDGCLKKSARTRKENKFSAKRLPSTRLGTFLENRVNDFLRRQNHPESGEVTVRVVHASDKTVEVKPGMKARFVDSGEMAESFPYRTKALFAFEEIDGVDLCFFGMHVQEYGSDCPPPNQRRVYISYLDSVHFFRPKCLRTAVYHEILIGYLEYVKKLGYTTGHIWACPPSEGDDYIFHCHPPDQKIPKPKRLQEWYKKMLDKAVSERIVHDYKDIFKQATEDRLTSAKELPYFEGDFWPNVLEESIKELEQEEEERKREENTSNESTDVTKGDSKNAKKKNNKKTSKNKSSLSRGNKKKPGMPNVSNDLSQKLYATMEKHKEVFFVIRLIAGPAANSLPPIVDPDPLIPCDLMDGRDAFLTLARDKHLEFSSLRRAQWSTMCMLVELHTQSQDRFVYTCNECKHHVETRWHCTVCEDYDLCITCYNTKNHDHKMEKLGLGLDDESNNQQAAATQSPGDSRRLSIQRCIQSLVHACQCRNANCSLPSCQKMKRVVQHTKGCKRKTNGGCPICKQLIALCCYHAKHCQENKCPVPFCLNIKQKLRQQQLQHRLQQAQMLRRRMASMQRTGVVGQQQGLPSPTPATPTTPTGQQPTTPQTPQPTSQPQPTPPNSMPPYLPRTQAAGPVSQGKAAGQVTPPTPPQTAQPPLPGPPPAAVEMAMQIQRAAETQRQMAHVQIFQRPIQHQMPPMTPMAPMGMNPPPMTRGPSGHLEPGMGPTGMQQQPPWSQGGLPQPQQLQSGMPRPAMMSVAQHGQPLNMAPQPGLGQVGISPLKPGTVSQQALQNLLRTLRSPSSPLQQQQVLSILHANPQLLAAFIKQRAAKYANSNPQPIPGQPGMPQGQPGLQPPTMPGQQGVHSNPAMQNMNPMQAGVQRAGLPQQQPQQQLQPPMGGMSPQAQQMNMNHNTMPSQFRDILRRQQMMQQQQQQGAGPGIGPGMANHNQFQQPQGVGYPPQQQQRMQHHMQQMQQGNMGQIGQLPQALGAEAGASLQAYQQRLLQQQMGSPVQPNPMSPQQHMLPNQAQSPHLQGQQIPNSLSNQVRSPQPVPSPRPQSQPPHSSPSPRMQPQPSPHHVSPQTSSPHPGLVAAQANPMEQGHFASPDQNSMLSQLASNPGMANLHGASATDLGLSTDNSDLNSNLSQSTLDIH

Like-named read-outs stand apart in the source and are kept apart here. Results are given in words; binding and its absence hold for the method and conditions named. In cells and extracts the contact can be indirect. Here binding means that the protein was enriched with, or labelled near, the bait; the list need not be complete. For some of these results: A no says only that the protein was not detected with the bait. For some of these results: Where a sequence is shown, tags or fusion partners need not be part of it.

Test [1] concerns the target T1, FAM90A1-BioID2-FLAG (human) (UniProt Q86YD7).
T1 sequence: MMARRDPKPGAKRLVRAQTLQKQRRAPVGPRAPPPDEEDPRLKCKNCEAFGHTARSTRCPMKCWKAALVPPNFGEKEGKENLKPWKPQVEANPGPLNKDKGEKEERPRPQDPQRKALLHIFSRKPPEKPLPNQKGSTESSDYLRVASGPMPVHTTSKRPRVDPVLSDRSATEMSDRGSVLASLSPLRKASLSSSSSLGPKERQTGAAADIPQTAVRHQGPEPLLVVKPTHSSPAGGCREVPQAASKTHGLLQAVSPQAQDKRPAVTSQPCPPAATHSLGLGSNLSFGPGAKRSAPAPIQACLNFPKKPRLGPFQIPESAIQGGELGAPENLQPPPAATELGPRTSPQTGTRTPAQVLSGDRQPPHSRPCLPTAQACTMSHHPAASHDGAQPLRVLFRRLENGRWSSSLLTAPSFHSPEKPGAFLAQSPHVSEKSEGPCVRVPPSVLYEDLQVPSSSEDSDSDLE
The test is described as follows: affinity purification with mass spectrometry + proximity labelling.

For test [2], the target named is T2, SPDYE4-BioID2-FLAG (human) (UniProt A6NLX3).
T2 sequence: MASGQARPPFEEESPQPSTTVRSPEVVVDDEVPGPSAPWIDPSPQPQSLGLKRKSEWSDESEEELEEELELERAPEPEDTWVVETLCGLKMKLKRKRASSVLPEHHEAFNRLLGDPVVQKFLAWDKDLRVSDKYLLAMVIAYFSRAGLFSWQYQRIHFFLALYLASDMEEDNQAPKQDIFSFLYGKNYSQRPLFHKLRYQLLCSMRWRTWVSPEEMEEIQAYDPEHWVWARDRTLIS
Described as above.

Test [3] addresses SUZ12-BioID2-FLAG (human) (UniProt Q15022). The experiment in a line: proximity labelling.
Test [4] has as its target KLF15-BioID2-FLAG (human) (UniProt Q9UIH9). The experiment in a line: proximity labelling.
For test [5], the target named is HOXB2-BioID2-FLAG (human) (UniProt P14652). The test is described as follows: proximity labelling.
The target in test [6] is T3, SRF-BioID2-FLAG (human) (UniProt P11831).
T3 sequence: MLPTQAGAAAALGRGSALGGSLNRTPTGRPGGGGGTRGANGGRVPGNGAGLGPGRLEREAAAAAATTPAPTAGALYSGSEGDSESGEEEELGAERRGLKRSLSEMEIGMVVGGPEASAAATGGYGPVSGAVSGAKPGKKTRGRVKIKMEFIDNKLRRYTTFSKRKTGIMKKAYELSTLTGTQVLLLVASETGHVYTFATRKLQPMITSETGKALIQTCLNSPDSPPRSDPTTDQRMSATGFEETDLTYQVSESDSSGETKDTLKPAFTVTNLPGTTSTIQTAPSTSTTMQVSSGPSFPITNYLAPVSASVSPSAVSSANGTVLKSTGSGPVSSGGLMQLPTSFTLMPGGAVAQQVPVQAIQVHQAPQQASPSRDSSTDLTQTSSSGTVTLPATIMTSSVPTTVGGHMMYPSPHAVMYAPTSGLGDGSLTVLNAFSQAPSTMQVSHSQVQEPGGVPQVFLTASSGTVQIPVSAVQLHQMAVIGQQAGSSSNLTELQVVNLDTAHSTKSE
The test is described as follows: proximity labelling.

Test [7] has as its target SOX7-BioID2-FLAG (human) (UniProt Q9BT81). The experiment in a line: proximity labelling.
Test [8] addresses KLF6-BioID2-FLAG (human) (UniProt Q99612). The experiment in a line: proximity labelling.
For test [9], the target named is T4, SS18L2-BioID2-FLAG (human) (UniProt Q9UHA2).
T4 sequence: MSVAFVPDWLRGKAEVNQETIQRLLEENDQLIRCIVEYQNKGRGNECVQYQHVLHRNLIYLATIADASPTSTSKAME
The test is described as follows: affinity purification with mass spectrometry + proximity labelling.

Test [10] deals with T3, SRF-BioID2-FLAG (human). The experiment in a line: proximity labelling. This is another data set of the same source.

For BRD2 (from UniProt P25440 1-801), the binding entry in test [1] and in test [2] was “binds” throughout.
For C10orf12 (from UniProt Q96JN0-3), the binding entry in test [3] is given as “binds”.
CBP (from UniProt Q92793 1-2442): the binding entry in [4] was “binds”; in test [5], “binds”; in test [6], “no binding”; in test [7], “binds”.
As for EPC1 (from UniProt Q9H2F5 1-836), the binding entry in test [8] is reported as “binds”.
On to MTF2/PCL2 (from UniProt Q9Y483 1-593), for which, in test [3], the binding result is listed as “binds”.
SMARCA2 (from UniProt P51531 1-1590): the binding result in test [9] is listed as “binds”.
Same read-out and setting: next, SMARCA4 (from UniProt P51532 1-1647): “binds”.
p300 (from UniProt Q09472 1-2414): the binding entry is listed as “binds” in test [4], “binds” in test [5], “no binding” in [6] and “binds” in test [7].

B1: ELK1 (protein, UniProt P19419 1-428)
chain: MDPSVTLWQFLLQLLREQGNGHIISWTSRDGGEFKLVDAEEVARLWGLRKNKTNMNYDKLSRALRYYYDKNIIRKVSGQKFVYKFVSYPEVAGCSTEDCPPQPEVSVTSTMPNVAPAAIHAAPGDTVSGKPGTPKGAGMAGPGGLARSSRNEYMRSGLYSTFTIQSLQPQPPPHPRPAVVLPSAAPAGAAAPPSGSRSTSPSPLEACLEAEEAGLPLQVILTPPEAPNLKSEELNVEPGLGRALPPEVKVEGPKEELEVAGERGFVPETTKAEPEVPPQEGVPARLPAVVMDTAGQAGGHAASSPEISQPQKGRKPRDLELPLSPSLLGGPGPERTPGSGSGSGLQAPGPALTPSLLPTHTLTPVLLTPSSLPPSIHFWSTLSPIAPRSPAKLSFQFPSSGSAQVHIPSISVDGLSTPVVLSPGPQKP
Consider B1, for which, in [10], the binding result is given as “binds”.
